The results in this text go back to the supplement of paper PMC8551327.

Where a name gives a salt, the structure may show the parent alone. This is one part of the list. Rule as the data show it: active = 1.25 or more and inactive = the rest. Single values are uncertain, as repeats are few or missing.

This experiment relates to Kcc2-LUC knock-in mouse primary cortical neurons (Kcc2 promoter reporter). In words: Kcc2 promoter-driven luciferase activity relative to vehicle control (fold of vehicle (ratio)); higher = stronger Kcc2 promoter activation (Kcc2 expression enhancer). Particulars: 100 nM; 48 h.
Turning to `CC1OC1C(=O)C1(O)C(C)C(O)C23OC2(C(O)c2c(O)cccc2C3=O)C1O` (stereo not drawn) [Cervicarcin], the “Kcc2 promoter-driven luciferase activity” value is inactive: 0.87.

As for `Cn1cnc([N+](=O)[O-])c1Sc1nnc(-c2cccnc2)n1C`, the “Kcc2 promoter-driven luciferase activity” value was inactive: 0.9.

As to `COc1cccc2c1C(=O)c1c(O)c3c(c(O)c1C2=O)C[C@@](O)(C(C)=O)C[C@@H]3O[C@@H]1C[C@@H](N(C)C)[C@@H](O)[C@@H](C)O1` [N,N-Dimethyldaunomycin hydrochloride], the “Kcc2 promoter-driven luciferase activity” value is inactive: 0.01.

Consider `Nc1ncnc2c1nc(Cl)n2[C@@H]1O[C@@H]2COP(=O)(O)O[C@H]2[C@H]1O`, for which the “Kcc2 promoter-driven luciferase activity” value is inactive: 0.79.

With `CCCC(=O)OCC1OC(n2ccc(N)nc2=O)C(OC(=O)CCC)C1OC(=O)CCC` (stereo not drawn) [Cytosine, 2',3',5'-tributyrate], the “Kcc2 promoter-driven luciferase activity” value is inactive: 0.45.

In the case of `COC(=O)[C@@]12OC[C@]34[C@H]([C@@H](O)[C@@H]1O)[C@@]1(C)CC(=O)C(O)=C(C)[C@@H]1C[C@H]3OC(=O)[C@H](OC(=O)C=C(C)C)[C@@H]24`, the “Kcc2 promoter-driven luciferase activity” value was active: 1.31.

Consider `O=C([O-])c1cc(I)cc(I)c1O.O=C([O-])c1cc(I)cc(I)c1O.[Mn+2]` [Mn(II) 3,5-diiodosalicylate], for which the “Kcc2 promoter-driven luciferase activity” value was inactive: 0.82.

On to `CCOc1ccccc1NC(=O)CC1Sc2ccccc2NC1=O` (stereo not drawn), for which the “Kcc2 promoter-driven luciferase activity” value was inactive: 1.08.
